According to article PMC10408038 (Journal of medicinal chemistry, 2022):

What was measured:
[1] = test system: HCT-116 cells; assay: Cell viability assay; conditions: Homo sapiens, HCT-116, 72 h, read-out: IC50 (μM) HCT-116
[2] = test system: NCI-H522 cells; assay: Cell viability assay; conditions: Homo sapiens, NCI-H522, 72 h, read-out: IC50 (μM) NCI-H522

For `O=C(CCCCCCC(=O)Nc1ccccc1)NO` [SAHA, reference compound], the IC50 [1] was 1.31 ± 0.08 µM and the IC50 [2] was 1.72 ± 0.28 µM.
